Source: publication doi:10.1101/2025.05.04.652104
These are yes or no findings as the source states them, for the method shown. In cells and extracts the contact can be indirect. Binding calls can cover weak binding; strength is not graded here.

By UniProt entry, the sequences of proteins in these tests, tags left out. Where a name states a change or a piece, a line headed by the entry shows the natural chain unless it says otherwise.
UniProt P00787: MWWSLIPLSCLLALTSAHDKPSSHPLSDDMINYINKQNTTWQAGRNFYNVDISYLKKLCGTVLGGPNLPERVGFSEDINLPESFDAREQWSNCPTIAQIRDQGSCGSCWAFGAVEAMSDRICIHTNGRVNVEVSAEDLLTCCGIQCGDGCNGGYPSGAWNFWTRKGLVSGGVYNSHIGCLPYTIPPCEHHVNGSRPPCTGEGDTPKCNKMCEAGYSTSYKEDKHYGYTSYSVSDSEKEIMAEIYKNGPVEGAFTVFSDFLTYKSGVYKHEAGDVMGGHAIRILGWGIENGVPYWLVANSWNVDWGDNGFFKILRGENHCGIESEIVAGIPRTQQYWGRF

Biological target: T1, Sialin (in NRK cells) (rat (endogenous in NRK)) (UniProt Q5Q0U0)
T1 sequence: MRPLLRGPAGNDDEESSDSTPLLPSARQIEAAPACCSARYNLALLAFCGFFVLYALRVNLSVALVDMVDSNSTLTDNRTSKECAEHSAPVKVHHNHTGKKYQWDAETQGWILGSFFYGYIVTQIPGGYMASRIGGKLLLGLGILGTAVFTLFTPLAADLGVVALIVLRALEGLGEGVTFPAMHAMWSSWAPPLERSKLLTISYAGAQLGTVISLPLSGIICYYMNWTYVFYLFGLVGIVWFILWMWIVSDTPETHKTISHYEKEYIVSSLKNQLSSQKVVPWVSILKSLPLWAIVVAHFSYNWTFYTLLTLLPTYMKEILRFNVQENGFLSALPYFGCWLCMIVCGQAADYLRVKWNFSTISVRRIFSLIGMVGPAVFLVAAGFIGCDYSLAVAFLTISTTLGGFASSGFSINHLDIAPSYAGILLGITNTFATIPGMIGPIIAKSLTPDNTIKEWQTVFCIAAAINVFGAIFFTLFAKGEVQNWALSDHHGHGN
Test: proximity ligation

binding: binds
Substance: cathepsin B (in NRK cells) (from UniProt P00787) (enzyme)
